Measured values from US20090203877A1 (Eberhard-Karls-Universitaet Tuebingen Universitaetsklinkum, priority 2006, published 2009).
HELM strings list residues between dots; [ac] is acetyl, [am] amide, other brackets name non-standard units.

Assay: general procedure: Fmoc solid-phase peptide synthesis; Fmoc Rink Amid Tentagel SRAM (0.25 mM/g) (Rapp Polymere); TBTU + diisopropylethylamine
Details: whole synthesis, analytical HPLC and ESI/MS

Substance	final HPLC purity
PEPTIDE1{[TIBA].P.K.K.K.R.K.V.K.G.G.K.[am]}|PEPTIDE2{[FITC5]}$PEPTIDE1,PEPTIDE2,9:R3-1:R2$$$V2.0	at least 98%
PEPTIDE1{P.K.K.K.R.K.V.K.G.G.K.P.L.G.V.R.K.[am]}|PEPTIDE2{[FITC5]}|PEPTIDE3{[TIBA]}|PEPTIDE4{[TIBA]}$PEPTIDE1,PEPTIDE2,8:R3-1:R2|PEPTIDE1,PEPTIDE3,11:R3-1:R2|PEPTIDE1,PEPTIDE4,17:R3-1:R2$$$V2.0	purity at least 98%
